Experimental data: the supplement of paper PMC10849652
This is one part of the list.

The chains behind the UniProt entries cited, without tags or fusion partners. Where a name states a change or a piece, a line headed by the entry shows the natural chain unless it says otherwise.
UniProt P31946: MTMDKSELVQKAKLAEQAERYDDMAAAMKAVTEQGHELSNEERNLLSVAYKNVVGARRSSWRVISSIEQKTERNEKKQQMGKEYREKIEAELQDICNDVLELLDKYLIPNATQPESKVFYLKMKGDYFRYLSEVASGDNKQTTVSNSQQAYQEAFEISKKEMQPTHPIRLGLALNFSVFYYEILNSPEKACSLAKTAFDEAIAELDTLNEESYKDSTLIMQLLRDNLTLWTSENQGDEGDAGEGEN
UniProt Q9C0B5: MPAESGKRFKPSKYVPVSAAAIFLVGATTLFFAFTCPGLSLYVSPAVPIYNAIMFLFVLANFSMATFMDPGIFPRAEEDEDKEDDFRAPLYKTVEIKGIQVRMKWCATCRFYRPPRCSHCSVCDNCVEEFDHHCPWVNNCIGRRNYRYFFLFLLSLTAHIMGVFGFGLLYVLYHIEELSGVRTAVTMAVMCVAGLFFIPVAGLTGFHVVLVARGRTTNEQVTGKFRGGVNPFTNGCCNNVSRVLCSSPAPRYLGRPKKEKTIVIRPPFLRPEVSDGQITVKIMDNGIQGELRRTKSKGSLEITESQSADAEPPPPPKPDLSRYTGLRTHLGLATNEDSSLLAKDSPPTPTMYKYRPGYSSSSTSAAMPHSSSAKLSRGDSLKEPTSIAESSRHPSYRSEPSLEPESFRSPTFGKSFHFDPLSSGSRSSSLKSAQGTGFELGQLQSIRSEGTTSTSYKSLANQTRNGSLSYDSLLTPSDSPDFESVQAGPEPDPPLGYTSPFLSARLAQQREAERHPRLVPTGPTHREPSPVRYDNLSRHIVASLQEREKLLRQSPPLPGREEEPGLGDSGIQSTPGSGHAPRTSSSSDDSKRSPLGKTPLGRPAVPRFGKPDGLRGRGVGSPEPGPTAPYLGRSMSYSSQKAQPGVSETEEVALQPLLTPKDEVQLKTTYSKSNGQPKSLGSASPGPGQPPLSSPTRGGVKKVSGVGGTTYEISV
UniProt O43670: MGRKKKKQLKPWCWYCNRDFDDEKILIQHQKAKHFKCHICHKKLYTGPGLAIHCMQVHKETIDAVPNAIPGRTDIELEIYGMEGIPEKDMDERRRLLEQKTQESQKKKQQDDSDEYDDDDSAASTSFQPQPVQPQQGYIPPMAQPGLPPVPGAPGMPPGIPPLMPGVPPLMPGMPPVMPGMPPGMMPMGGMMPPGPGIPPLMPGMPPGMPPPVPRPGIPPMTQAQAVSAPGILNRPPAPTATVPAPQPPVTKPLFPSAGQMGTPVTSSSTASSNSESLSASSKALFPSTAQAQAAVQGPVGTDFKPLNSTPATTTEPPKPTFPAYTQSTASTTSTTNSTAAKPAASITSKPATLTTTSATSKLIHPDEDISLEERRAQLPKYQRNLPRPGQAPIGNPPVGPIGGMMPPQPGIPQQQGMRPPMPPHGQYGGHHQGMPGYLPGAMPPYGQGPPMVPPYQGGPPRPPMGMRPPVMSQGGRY
UniProt P16989, whole entry, looked up: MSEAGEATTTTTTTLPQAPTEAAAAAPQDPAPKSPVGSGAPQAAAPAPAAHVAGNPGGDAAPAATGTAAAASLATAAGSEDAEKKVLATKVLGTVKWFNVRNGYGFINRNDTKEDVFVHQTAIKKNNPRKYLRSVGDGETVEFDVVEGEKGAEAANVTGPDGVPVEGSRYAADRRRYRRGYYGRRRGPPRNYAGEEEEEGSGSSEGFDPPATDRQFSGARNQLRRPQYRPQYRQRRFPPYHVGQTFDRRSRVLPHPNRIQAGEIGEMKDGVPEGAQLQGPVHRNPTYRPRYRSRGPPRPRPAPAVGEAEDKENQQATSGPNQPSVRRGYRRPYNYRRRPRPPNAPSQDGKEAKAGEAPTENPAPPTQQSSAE
UniProt O75844: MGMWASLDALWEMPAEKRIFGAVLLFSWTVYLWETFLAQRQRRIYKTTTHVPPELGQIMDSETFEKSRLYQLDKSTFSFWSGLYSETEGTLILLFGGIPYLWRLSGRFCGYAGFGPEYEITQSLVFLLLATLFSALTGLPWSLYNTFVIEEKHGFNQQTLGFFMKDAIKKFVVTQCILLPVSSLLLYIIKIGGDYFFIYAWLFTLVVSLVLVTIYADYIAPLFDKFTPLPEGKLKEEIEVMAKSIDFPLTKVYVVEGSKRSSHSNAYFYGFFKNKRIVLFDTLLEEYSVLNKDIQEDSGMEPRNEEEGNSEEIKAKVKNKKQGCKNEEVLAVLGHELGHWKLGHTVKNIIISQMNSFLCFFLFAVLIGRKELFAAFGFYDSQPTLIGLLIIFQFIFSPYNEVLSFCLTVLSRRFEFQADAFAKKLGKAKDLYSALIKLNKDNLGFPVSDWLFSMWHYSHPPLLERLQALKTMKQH
UniProt Q9BSR8: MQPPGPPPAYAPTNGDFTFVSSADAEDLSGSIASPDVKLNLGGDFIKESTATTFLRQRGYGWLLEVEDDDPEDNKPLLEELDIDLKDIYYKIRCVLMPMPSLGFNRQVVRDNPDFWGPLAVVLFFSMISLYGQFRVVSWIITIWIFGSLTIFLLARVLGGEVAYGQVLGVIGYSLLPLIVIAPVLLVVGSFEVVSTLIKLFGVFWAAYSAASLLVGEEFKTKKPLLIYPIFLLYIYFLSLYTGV
UniProt Q9Y2Z4: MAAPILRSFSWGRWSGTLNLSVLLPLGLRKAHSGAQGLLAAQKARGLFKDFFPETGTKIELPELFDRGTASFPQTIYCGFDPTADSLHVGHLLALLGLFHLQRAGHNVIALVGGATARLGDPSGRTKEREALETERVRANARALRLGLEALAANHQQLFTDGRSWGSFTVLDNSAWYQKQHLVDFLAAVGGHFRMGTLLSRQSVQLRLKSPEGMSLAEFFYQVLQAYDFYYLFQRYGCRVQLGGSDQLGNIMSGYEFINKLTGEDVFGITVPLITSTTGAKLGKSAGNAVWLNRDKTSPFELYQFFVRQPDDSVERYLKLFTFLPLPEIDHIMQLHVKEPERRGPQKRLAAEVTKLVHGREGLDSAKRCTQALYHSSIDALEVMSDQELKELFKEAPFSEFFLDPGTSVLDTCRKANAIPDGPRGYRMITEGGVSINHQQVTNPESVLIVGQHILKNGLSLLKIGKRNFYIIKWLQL

Experiments:
Assay in all cases: log2 fold change, soluble protein after heating vs DMSO (PISA); higher = thermal stabilisation; K562 cells, 10 uM, 30 min; active = over 0.2 and 3.5 SD of the protein, either way, in both replicates (recomputed)
bafetinib = compound: Cc1ccc(NC(=O)c2ccc(CN3CC[C@H](N(C)C)C3)c(C(F)(F)F)c2)cc1Nc1nccc(-c2cncnc2)n1 [bafetinib]
Procedure, shortened: (§1)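 Thermal stability values are relative to control samples and come from duplicates. They are expressed as log2 fold changes. For measurement, K562 cells (2×10^6 cells/mL) received 10 μM compound for 30 min, and aliquots were heated for 3 min over 48°C-58°C, pooled, and extracted at 4°C in PBS with 0.5% NP-40. Soluble protein, the supernatant after 21,000xg for 90 min, was quantified by TMTpro 16plex LC-MS/MS with equalised channel sums.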

[1] = compound: Cc1cccc(CC(=O)N2CCc3c2ccc(-c2cn(C)c4ncnc(N)c24)c3F)n1
Procedure, shortened: as §1

nilotinib = compound: Cc1cn(-c2cc(NC(=O)c3ccc(C)c(Nc4nccc(-c5cccnc5)n4)c3)cc(C(F)(F)F)c2)cn1 [nilotinib]
Procedure, shortened: as §1

[2] = compound: Cc1nc(Nc2n[nH]c3c2CN(C(=O)N[C@H](CN(C)C)c2ccccc2)C3(C)C)c2sccc2n1
Procedure, shortened: as §1

dasatinib = compound: Cc1nc(Nc2ncc(C(=O)Nc3c(C)cccc3Cl)s2)cc(N2CCN(CCO)CC2)n1 [dasatinib]
Procedure, shortened: as §1

[3] = compound: Cc1ncc(-c2ccnc(Nc3ccc(S(C)(=O)=O)cc3)n2)n1C(C)C
Procedure, shortened: as §1

[4] = compound: Cn1cc(-c2ccc3c(c2)CCN3C(=O)Cc2cccc(C(F)(F)F)c2)c2c(N)ncnc21
Procedure, shortened: as §1

[5] = compound: Cn1cc(-c2ccc3nnc(C(F)(F)c4ccc5ncccc5c4)n3n2)cn1
Procedure, shortened: as §1

tipifarnib = compound: Cn1cncc1[C@@](N)(c1ccc(Cl)cc1)c1ccc2c(c1)c(-c1cccc(Cl)c1)cc(=O)n2C [tipifarnib]
Procedure, shortened: as §1

mubritinib = compound: FC(F)(F)c1ccc(/C=C/c2nc(COc3ccc(CCCCn4ccnn4)cc3)co2)cc1 [mubritinib]
Procedure, shortened: as §1

[6] = compound: NC(=O)Nc1cc(-c2cccc(F)c2)sc1C(=O)N[C@H]1CCCNC1
Procedure, shortened: as §1

[7] = compound: NC(=O)c1cnc(N[C@@H]2CCCC[C@@H]2N)nc1Nc1cccc(-n2nccn2)c1
Procedure, shortened: as §1

[8] = compound: NC1(c2ccc(-c3nc4ccn5c(=O)[nH]nc5c4cc3-c3ccccc3)cc2)CCC1
Procedure, shortened: as §1

[9] = compound: NCC(=O)Nc1ccc(-n2nc(C(F)(F)F)cc2-c2ccc3c(ccc4ccccc43)c2)cc1
Procedure, shortened: as §1

entinostat = compound: Nc1ccccc1NC(=O)c1ccc(CNC(=O)OCc2cccnc2)cc1 [entinostat]
Procedure, shortened: as §1

vorinostat = compound: O=C(CCCCCCC(=O)Nc1ccccc1)NO [vorinostat]
Procedure, shortened: as §1

citarinostat = compound: O=C(CCCCCCNC(=O)c1cnc(N(c2ccccc2)c2ccccc2Cl)nc1)NO [citarinostat]
Procedure, shortened: as §1

silmitasertib = compound: O=C(O)c1ccc2c(c1)nc(Nc1cccc(Cl)c1)c1ccncc12 [silmitasertib]
Procedure, shortened: as §1

[10] = compound: O=C1NC(=O)C(c2cnc3ccccn23)=C1c1cn2c3c(cc(F)cc13)CN(C(=O)N1CCCCC1)CC2
Procedure, shortened: as §1

[11] = compound: c1cc(OCCN2CCCCC2)cc(-c2n[nH]c3ccc(-c4nnc[nH]4)cc23)c1
Procedure, shortened: as §1

Measured: log2 fold change

YWHAB (UniProt P31946)
inactive: bafetinib -0.008 | [1] -0.058 | nilotinib 0.039 | [2] -0.002 | dasatinib 0.006 | [3] 0 | [4] 0.005 | [5] -0.037 | tipifarnib 0.059 | mubritinib 0.045 | [6] -0.027 | [7] -0.05 | [8] -0.056 | [9] -0.007 | entinostat -0.042 | vorinostat -0.02 | citarinostat 0.001 | silmitasertib -0.014 | [10] -0.04 | [11] -0.019

ZDHHC5 (UniProt Q9C0B5)
inactive: bafetinib 0 | [1] -0.067 | nilotinib 0.091 | [2] -0.037 | dasatinib 0.019 | [3] -0.009 | [4] -0.02 | [5] -0.009 | tipifarnib 0.013 | mubritinib 0.025 | [6] -0.081 | [7] -0.01 | [8] -0.027 | [9] -0.005 | entinostat -0.034 | vorinostat -0.02 | citarinostat -0.022 | silmitasertib 0.101 | [10] -0.014 | [11] -0.076

ZNF207 isoform 4 (UniProt O43670)
inactive: bafetinib 0.014 | [1] -0.019 | nilotinib 0.012 | [2] -0.007 | dasatinib 0.005 | [3] 0.031 | [4] -0.003 | [5] -0.079 | tipifarnib -0.028 | mubritinib -0.015 | [6] 0.066 | [7] -0.012 | [8] 0.047 | [9] -0.003 | entinostat 0.006 | vorinostat 0.028 | citarinostat 0.057 | silmitasertib 0.019 | [10] 0.049 | [11] -0.039

2 successive records out of the list so far, quoted:
ZDHHC5 (UniProt Q9C0B5)
inactive: bafetinib 0 | [1] -0.067 | nilotinib 0.091 | [2] -0.037 | dasatinib 0.019 | [3] -0.009 | [4] -0.02 | [5] -0.009 | tipifarnib 0.013 | mubritinib 0.025 | [6] -0.081 | [7] -0.01 | [8] -0.027 | [9] -0.005 | entinostat -0.034 | vorinostat -0.02 | citarinostat -0.022 | silmitasertib 0.101 | [10] -0.014 | [11] -0.076

ZNF207 isoform 4 (UniProt O43670)
inactive: bafetinib 0.014 | [1] -0.019 | nilotinib 0.012 | [2] -0.007 | dasatinib 0.005 | [3] 0.031 | [4] -0.003 | [5] -0.079 | tipifarnib -0.028 | mubritinib -0.015 | [6] 0.066 | [7] -0.012 | [8] 0.047 | [9] -0.003 | entinostat 0.006 | vorinostat 0.028 | citarinostat 0.057 | silmitasertib 0.019 | [10] 0.049 | [11] -0.039

The list goes on:

ZNF207 isoform 2 (UniProt O43670)
inactive: bafetinib 0.165 | [1] 0.122 | nilotinib -0.104 | [2] 0.044 | dasatinib 0.056 | [3] -0.093 | [4] -0.292 | [5] -0.091 | tipifarnib 0.024 | mubritinib -0.012 | [6] -0.142 | [7] -0.266 | [8] -0.113 | [9] -0.124 | entinostat 0.061 | vorinostat 0.065 | citarinostat 0.008 | silmitasertib 0.043 | [10] 0.146 | [11] -0.163

YBX3 (UniProt P16989)
inactive: bafetinib 0.091 | [1] -0.048 | nilotinib 0.047 | [2] 0.156 | dasatinib 0.12 | [3] 0.032 | [4] -0.236 | [5] -0.115 | tipifarnib 0.115 | mubritinib -0.065 | [6] -0.012 | [7] 0.136 | [8] 0.322 | [9] 0.063 | entinostat -0.106 | vorinostat -0.018 | citarinostat -0.118 | silmitasertib 0.123 | [10] 0.209 | [11] -0.144

ZMPSTE24 (UniProt O75844)
inactive: bafetinib 0.075 | [1] -0.019 | nilotinib 0.17 | [2] 0.008 | dasatinib 0.019 | [3] -0.061 | [4] -0.018 | [5] -0.014 | tipifarnib 0.001 | mubritinib 0.026 | [6] 0.018 | [7] -0.008 | [8] 0.02 | [9] 0.035 | entinostat 0.004 | vorinostat -0.049 | citarinostat 0.033 | silmitasertib 0.01 | [10] 0.036 | [11] -0.018

YIPF4 (UniProt Q9BSR8)
active: tipifarnib 0.31
inactive: bafetinib -0.045 | [1] -0.042 | nilotinib 0.046 | [2] 0.004 | dasatinib 0.021 | [3] -0.005 | [4] 0.03 | [5] 0.108 | mubritinib 0.024 | [6] 0.066 | [7] 0.091 | [8] -0.01 | [9] -0.004 | entinostat -0.04 | vorinostat -0.046 | citarinostat 0.042 | silmitasertib -0.006 | [10] -0.087 | [11] -0.051

YARS2 (UniProt Q9Y2Z4)
inactive: bafetinib 0.064 | [1] 0.01 | nilotinib 0.022 | [2] -0.323 | dasatinib -0.237 | [3] 0.083 | [4] 0.041 | [5] 0.022 | tipifarnib 0.048 | mubritinib -0.158 | [6] -0.196 | [7] -0.058 | [8] 0.223 | [9] -0.189 | entinostat -0.001 | vorinostat -0.064 | citarinostat 0.096 | silmitasertib -0.019 | [10] -0.224 | [11] -0.036
